Article PMC7847308, “Nanoscopic anatomy of dynamic multi-protein complexes at membranes resolved by graphene-induced energy transfer” (eLife, 2021)
Results are given in words; binding and its absence hold for the method and conditions named. Some results given as binding are weak or reduced against the parent protein; the word gives no strength. Tags and fused reporters may be left off the sequences shown.

T1: Vps41-TAP (S. cerevisiae), P38959
T1 chain: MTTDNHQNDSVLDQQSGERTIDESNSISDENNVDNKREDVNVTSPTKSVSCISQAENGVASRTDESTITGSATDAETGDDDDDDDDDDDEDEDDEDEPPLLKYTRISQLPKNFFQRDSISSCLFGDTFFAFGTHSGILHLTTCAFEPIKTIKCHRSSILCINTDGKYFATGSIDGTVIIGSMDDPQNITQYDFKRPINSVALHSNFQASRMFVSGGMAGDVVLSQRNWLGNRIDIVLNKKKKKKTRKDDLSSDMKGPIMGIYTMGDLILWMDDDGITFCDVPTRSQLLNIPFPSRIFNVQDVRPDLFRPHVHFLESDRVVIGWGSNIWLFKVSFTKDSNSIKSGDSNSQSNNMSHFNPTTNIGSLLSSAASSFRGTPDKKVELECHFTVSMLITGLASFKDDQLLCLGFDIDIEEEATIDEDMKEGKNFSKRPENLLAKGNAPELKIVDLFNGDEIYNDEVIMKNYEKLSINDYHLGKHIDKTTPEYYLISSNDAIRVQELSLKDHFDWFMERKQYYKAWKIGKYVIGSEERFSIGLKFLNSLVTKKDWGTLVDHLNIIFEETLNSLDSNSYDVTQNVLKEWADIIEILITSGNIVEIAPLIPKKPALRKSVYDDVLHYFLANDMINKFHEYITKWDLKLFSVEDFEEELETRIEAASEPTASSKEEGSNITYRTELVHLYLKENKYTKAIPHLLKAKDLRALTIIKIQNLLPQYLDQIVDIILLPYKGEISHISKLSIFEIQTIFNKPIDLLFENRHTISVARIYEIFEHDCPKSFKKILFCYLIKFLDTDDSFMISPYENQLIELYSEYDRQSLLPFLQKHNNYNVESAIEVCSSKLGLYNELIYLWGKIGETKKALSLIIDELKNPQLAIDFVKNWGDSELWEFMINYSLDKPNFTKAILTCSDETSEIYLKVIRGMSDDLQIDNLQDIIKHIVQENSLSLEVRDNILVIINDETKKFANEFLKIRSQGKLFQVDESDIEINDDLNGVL

B1: Vps33-yEGFP, P20795 1-691 (protein)
chain: MNRFWNTKKFSLTNADGLCATLNEISQNDEVLVVQPSVLPVLNSLLTFQDLTQSTPVRKITLLDDQLSDDLPSALGSVPQMDLIFLIDVRTSLRLPPQLLDAAQKHNLSSLHIIYCRWKPSFQNTLEDTEQWQKDGFDLNSKKTHFPNVIESQLKELSNEYTLYPWDLLPFPQIDENVLLTHSLYNMENVNMYYPNLRSLQSATESILVDDMVNSLQSLIFETNSIITNVVSIGNLSKRCSHLLKKRIDEHQTENDLFIKGTLYGERTNCGLEMDLIILERNTDPITPLLTQLTYAGILDDLYEFNSGIKIKEKDMNFNYKEDKIWNDLKFLNFGSIGPQLNKLAKELQTQYDTRHKAESVHEIKEFVDSLGSLQQRQAFLKNHTTLSSDVLKVVETEEYGSFNKILELELEILMGNTLNNDIEDIILELQYQYEVDQKKILRLICLLSLCKNSLREKDYEYLRTFMIDSWGIEKCFQLESLAELGFFTSKTGKTDLHITTSKSTRLQKEYRYISQWFNTVPIEDEHAADKITNENDDFSEATFAYSGVVPLTMRLVQMLYDRSILFHNYSSQQPFILSREPRVSQTEDLIEQLYGDSHAIEESIWVPGTITKKINASIKSNNRRSIDGSNGTFHAAEDIALVVFLGGVTMGEIAIMKHLQKILGKKGINKRFIIIADGLINGTRIMNSIS
B2: Vps33, P20795 1-691 (protein)
chain: B1 chain
B3: Vps39, Q07468 1-1049 (protein)
chain: MLRAQKLHSLKSSDITAILPTEQSQKLVLAKKNGDVEVYSRDGNTLKLFQVYPDLLQNAKNDPLPPVIENFYFANELSTIFAQCKETLILLSTTNLHEYDRIIDRRGINHCWLFERSHKNKEEKNTYLIYSTINTAKMRVLIWEGRTYKNMMEASLSYRKETIRSIYPGETGITLATDLGIYHWPYNKPSLIRIEKTVKNKFPKDMISALTELKEQAEKVIEKKPKKNSHFDAQSFSSMDRMSRKSSMSSLWYRTIRNERGNKIRYTFELDGNDATPMIIDGATKKIFKVELMHNNEEPFLIATDHATFSESNSEFDHMQYLSSNLLMLYNSSTIKFVDYENGFTFLQQKIPEGIKWVKNLSGTYFLVWTSNDEVQLFSYHVDDGSEDDDQESICGDINDPDFYQLWRKVLFYKFFIDSPHSKELCVSDNPEESLDICAMKLRDLTVMWCLRIFDKFQNYMVQLERSRNSRMIRSKCEEMIIKSIFDLFIKFWAPPQLVILKVFPSAISSLVLEITGQEHHCLLKEAEEVKETYDIPPHLLNRWCLPYLTDTRRHLQNLLSKENDDESRITWCYRDREIKQSFDFFLISNHDDVDLNTMLTLIDTVLFKCYLYYNPPMVGPFIRVENHCDSHVIVTELKIRHMFKDLIDFYYKRGNHEEALKFLTDLVDELENDNTDQKQRQKIDHGVKILVIYYLKKLSNPQLDVIFTYTDWLLNRHNDSIKEILSSIFFYDSQACSSRDHLKVYGYIKKFDKLLAIQYLEFAISTFRLEGNKLHTVLIKLYLENLDIPSTRIKLKSLLETTSVYEPRTILKLLNDAIESGSDQLPTNQLNFVKYLKIFPLSKLENHKEAVHILLDEIDDYKAATSYCNDVYQSDSTKGEELLLYLYSKLVSIYDSNRNSKLILNFLQDHGSKLNSAEIYKNLPQDISLYDIGRVVSQLLKKHTSKMDETRLEKALLQVELVATTYKLNERMSSYGVLSDSHKCPICKKVISNFGTDSISWFTREGRNIITHYNCGKVLQERFNAKNEKSSRIKQKTLGEVINELNNK
B4: Vps11-yEGFP, P12868 1-1029 (protein)
chain: MSLSSWRQFQLFENIPIRDPNFGGDSLLYSDPTLCAATIVDPQTLIIAVNSNIIKVVKLNQSQVIHEFQSFPHDFQITFLKVINGEFLVALAESIGKPSLIRVYKLEKLPNREQLYHSQVELKNGNNTYPISVVSISNDLSCIVVGFINGKIILIRGDISRDRGSQQRIIYEDPSKEPITALFLNNDATACFAATTSRILLFNTTGRNRGRPSLVLNSKNGLDLNCGSFNPATNEFICCLSNFIEFFSSSGKKHQFAFDLSLRKRIFCVDKDHILIVTEETGVPTTSISVNELSPTIINRIFIIDAKNKIISLNFVVSSAIIDIFSTSQSGKNITYLLTSEGVMHRITPKSLENQINIIIQKELYPFALQLAKQHSLSPLDVQEIHKKYGDYLFKKGLRKEATDQYIQCLDVVETSEIISKFGVKEVPDPESMRNLADYLWSLIKNSISQRDHVTLLLIVLIKLKDVEGIDTFIQHFDRKGIWNEGVVMDDMDDVTFFYSDNDFFDLDLILELMKESDFKRLSYRLAKKYSKDSLIIVDILLNLLHNPVKAIKYIKSLPIDETLRCLVTYSKKLLEESPNETNALLIEVFTGKFKPSTFEVDLDRRDTTGDFSENIRTVFYSYKTFFNYMNSNGTSDAMSESSEASHEHEEPTYHPPKPSIVFSSFVTKPFEFVVFLEACLACYQQYEGFDEDRQVILTTLYDLYLNLAQNDVPERIDDWRSRATGVLRESNKLVYSAASNNTSKRVDNSIMLLISHMDQSSASAKDKTKIDIASFANDNPEMDLLSTFRAMTLNEEPSTCLKFLEKYGTEEPKLLQVALSYFVSNKLIFKEMGGNEVLKEKVLRPIIEGERMPLLDIIKALSRTNVAHFGLIQDIIIDHVKTEDTEIKRNEKLIESYDKELKEKNKKLKNTINSDQPLHVPLKNQTCFMCRLTLDIPVVFFKCGHIYHQHCLNEEEDTLESERKLFKCPKCLVDLETSNKLFEAQHEVVEKNDLLNFALNSEEGSRDRFKVITEFLGRGAISYSDITI
B5: Vps11, P12868 1-1029 (protein)
chain: B4 chain

Molecular target: T1, Vps41-TAP (S. cerevisiae), P38959
Assay: tandem affinity purification with SDS-PAGE and Coomassie staining; yeast lysate on IgG Sepharose by the TAP-tagged subunit, 2 h 4 C, washed, eluted by TEV cleavage; 300 mM NaCl (HOPS) or 150 mM NaCl (Mon1-Ccz1)
Settings: remark: other sources report otherwise

binding, binds:
B1
B2
B3
B4
B5
